# Results reported in publication PMC12670160, “A drug-repurposing screen of FDA- and EMA-approved drugs identifies two NF-κB inhibitors active against eumycetoma” (Journal of Antimicrobial Chemotherapy, 2025).
# Where a name gives a salt, the structure may show the parent alone. Hit rate of the full screen: of about 5,300 compounds, about 130 (2.5%) showed an effect of 50% or more. The list shows a part of the results.
# Tested on: M. mycetomatis strain mm55
# Details: primary screen, metabolic activity vs growth control; 96 h, 2 µM; inhibitor
row,Compound,% viability [%]
1,"COc1ccc(-c2cc(=O)c3c(OC)c(OC)c(OC)c(OC)c3o2)cc1 [ONC0005052, tangeretin tangeritin]",95.15
2,"Cc1ccc(CNc2ncnc3ccc(-c4ccc(CO)o4)cc23)o1 [ONC0005070, ml167]",85.12
3,"Cc1[nH]c(/C=C2\C(=O)Nc3ccc(F)cc32)c(C)c1C(=O)NCCN1CCCC1 [ONC0002286, toceranib phosphate]",63.73
4,"Cc1nc(C)c(-c2ccc([C@H]3CC[C@H](CC(=O)O)CC3)cc2)nc1C(N)=O [ONC0000747, azd7687]",72.19
5,"N#Cc1ncccn1 [ONC0003700, 2cyanopyrimidine]",105
6,"CC12CC3CC(C)(C1)CC(N)(C3)C2 [ONC0000629, memantine hydrochloride]",88.67
7,"CN1CCCN=C1/C=C/c1cccs1 [ONC0001175, pyrantel pamoate]",133.2
8,"N#Cc1c(Oc2ccc(F)c(NC(=O)Cc3cccc(C(F)(F)F)c3)c2)ccc2nc(NC(=O)C3CC3)sc12 [ONC0004387, tak632]",113
9,"NS(=O)(=O)NCc1csc2ccccc12 [ONC0002615, jnj26990990]",78.72
10,"Cc1cc(OCc2nc(-c3ccccc3Cl)cs2)ccc1OCC(=O)O [ONC0004227, gpr120 modulator 1]",84.58
11,"CCCCC(CC)COc1ccc(-c2nc(-c3ccc(OC)cc3)nc(-c3ccc(OCC(CC)CCCC)cc3O)n2)c(O)c1 (centres unmarked) [ONC0002354, bemotrizinol]",72.24
12,"COc1ccc(-c2cc(=O)c3c(OC)c(OC)c(OC)c(OC)c3o2)cc1OC [ONC0004945, nobiletin hexamethoxyflavone]",107.8
13,"CCOC(=O)N1c2ccc(C(F)(F)F)cc2[C@@H](N(Cc2cc(C(F)(F)F)cc(C(F)(F)F)c2)C(=O)OC)C[C@H]1CC [ONC0004341, torcetrapib cp529414]",107.6
14,"Cc1c(N)cccc1Cn1ccc(OCCc2cccs2)cc1=O [ONC0000431, 13amino2methylbenzyl42thiophen2ylethoxy2pyridone]",70.22
15,"Nc1ccn([C@H]2CO[C@@H](CO)S2)c(=O)n1 [ONC0002008, apricitabine]",97.22
16,"NC(=O)C(c1ccccc1)(c1ccc(F)cc1)c1ccc(F)cc1 [ONC0001807, senicapoc]",117.3
17,"Cc1ccc(C(=O)Nc2cccc(C(F)(F)F)c2)cc1Nc1nc(-c2cccnc2)nc2c1cnn2C [ONC0004595, nvpbhg712]",81.25
18,"Cc1ncc(C)n2nc([C@@H]3C[C@H]3c3nc4c5cccnc5ccn4c3C)nc12 [ONC0002274, pde10in1]",134
19,"C=CCN1CC[C@]23c4c5ccc(O)c4O[C@H]2C(=O)CC[C@@]3(O)[C@H]1C5 [ONC0000381, naloxone hydrochloride]",70.45
20,"O=c1cc[nH]c(=O)[nH]1 [ONC0004138, uracil]",94.37
